Test: general procedure: Boc solid-phase peptide synthesis; MBHA resin, 100-180 mesh, 1% DVB, loading 0.7-1.0 mmol/g (Midwest Biotech); DEPBT/DIEA single couplings; DIC for acylation
Conditions: lipidation step, analytical HPLC, UV 214 or 220 nm

Glucagon Aib2 E16 A18 L27 D29 Cex Cys40(S-2 palmityl)amide
final HPLC purity: 90%+
